From patent publication US20230235004A1

Biological target: cyno MAdCAM protein (cyno)
Experiment: ELISA

Row | binding | Binder
1 | binds | MAdCAM antibody Table 1 clone 57 (scFv) scFv: QVQLVQSGAEVKKPGASVKVSCKASGYTFTSYYMHWVRQAPGQGLEWMGIINPSGGSTSYAQKFQGRVTMTRDTSTSTVYMELSSLRSEDTAVYYCARDSVAGTGGRYYGMDVWGQGTLVTVSSGGGGSGGGGSGGGGSGGGGSDIQMTQSPSSLSASVGDRVTITCRASQGISNYFAWYQQKPGKAPKLLIYAASSLQGGVPSRFSGSGSGTDFTLTISSLQPEDFATYYCQQSYSLPYTFGQGTKLEIK
2 | binds | MAdCAM Antibody Table 2 clone 2 (antibody, V domains shown) VH: QVQLVQSGAEVKKPGASVKVSCKASGYPFIGYYLHWVRQAPGQGLEWMGIINPSGGSTSYAQKFQGRVTMTRDTSTSTVYMELSSLRSEDTAVYYCAREGRLSYGMDAWGQGTLVTVSS VL: DIQMTQSPSSLSASVGDRVTITCRASQSISSYLAWYQQKPGKAPKLLIYGASTLESGVPSRFSGSGSGTDFTLTISSLQPEDFATYYCQQTWGPPFTFGQGTKLEIK
3 | binds | MAdCAM Antibody Table 2 clone 34 (antibody, V domains shown) VH: QVQLVQSGAEVKKPGASVKVSCKASGYTFTGYYIHWVRQAPGQGLEWMGWMNPNSGNTGYAQKFQGRVTMTRDTSTSTVYMELSSLRSEDTAVYYCARDPGFLGYCSGGSCYDGWFDPWGQGTLVTVSS VL: DIQMTQSPSSLSASVGDRVTITCRASQSISSYLHWYQQKPGKAPKLLIYAASSLQSGVPSRFSGSGSGTDFTLTISSLQPEDFATYYCQQSYTAPYTFGQGTKLEIK
4 | binds | MAdCAM Antibody Table 2 clone 43 (antibody, V domains shown) VH: QVQLVQSGAEVKKPGASVKVSCKASGYTFTSYGISWVRQAPGQGLEWMGWMHPKSGDTGLTQKFQGRVTMTRDTSTSTVYMELSSLRSEDTAVYYCARDTPYYYYGMDVWGQGTTVTVSS VL: DIQMTQSPSSLSASVGDRVTITCRASQSISSWLAWYQQKPGKAPKLLIYAASSLQSGVPSRFSGSGSGTDFTLTISSLQPEDFATYYCQQSYSVPITFGQGTKVEIK
5 | binds | MAdCAM Antibody Table 2 clone 3 (antibody, V domains shown) VH: QVQLVQSGAEVKKPGASVKVSCKASGYPFIGQYLHWVRQAPGQGLEWMGIINPSGGSTSYAQKFQGRVTMTRDTSTSTVYMELSSLRSEDTAVYYCAREGRLSYGMDAWGQGTLVTVSS VL: DIQMTQSPSSLSASVGDRVTITCRASQSISSYLAWYQQKPGKAPKLLIYGASTLESGVPSRFSGSGSGTDFTLTISSLQPEDFATYYCQQTWGPPFTFGQGTKLEIK
6 | binds | MAdCAM Antibody Table 2 clone 56 (antibody, V domains shown) VH: EVQLVESGGGLVKPGGSLRLSCAASGFTFSSYWMSWVRQAPGKGLEWVSAIGTGGGTYYAAPVKGRFTISRDDSKNTLYLQMNSLKTEDTAVYYCAREWLVPYYGMDVWGQGTTVTVSS VL: DIQMTQSPSSLSASVGDRVTITCRASQSISRWLAWYQQKPGKAPKLLIYGASNLQSGVPSRFSGSGSGTDFTLTISSLQPEDFATYYCQQSYSTPWTFGQGTKVEIK
7 | binds | MAdCAM antibody Table 1 clone 51 (scFv) scFv: EVQLLESGGGLVQPGGSLRLSCAASGFTFNNYGMNWVRQAPGKGLEWVSRINSDGSSTSYADSVKGRFTISRDNSKNTLYLQMNSLRAEDTAVYYCARGAYYYYYMDVWGQGTLVTVSSGGGGSGGGGSGGGGSGGGGSEIVMTQSPATLSVSPGERATLSCRASQSVSGSYLAWYQQKPGQAPRLLIYATSSRASGIPARFSGSGSGTEFTLTISSLQSEDFAVYYCQQYYSGLTFGQGTKVEIK
8 | binds | MAdCAM antibody Table 1 clone 52 (scFv) scFv: EVQLLESGGGLVQPGGSLRLSCAASGFTFSNSDMNWVRQAPGKGLEWVAHIWNDGSQKYYADSVKGRFTISRDNSKNTLYLQMNSLRAEDTAVYYCARDRTDPGYSSAMDVWGQGTTVTVSSGGGGSGGGGSGGGGSGGGGSDIQMTQSPSSLSASVGDRVTITCRASQDIRNYLGWYQQKPGKAPKLLIYDASSLETGVPSRFSGSGSGTDFTLTISSLQPEDFATYYCQQATSLPLTFGGGTKVEIK
9 | binds | MAdCAM antibody Table 1 clone 53 (scFv) scFv: QVQLVQSGAEVKKPGASVKVSCKASGYTFTSYDINWVRQAPGQGLEWMGWMNPNSGNTGYAQKFQGRVTMTRDTSTSTVYMELSSLRSEDTAVYYCAKDSDYSNLLWDYWGQGTLVTVSSGGGGSGGGGSGGGGSGGGGSDIQMTQSPSSLSASVGDRVTITCRASQDITNDLGWYQQKPGKAPKLLIYQASSLESGVPSRFSGSGSGTDFTLTISSLQPEDFATYYCQQSYTIPLTFGQGTKVEIK
10 | binds | MAdCAM antibody Table 1 clone 55 (scFv) scFv: QVQLVQSGAEVKKPGASVKVSCKASGYTFTSYYMHWVRQAPGQGLEWMGIIDPSGGSTSYAQKFQGRVTMTRDTSTSTVYMELSSLRSEDTAVYYCAREEWSSGGVGYFDYWGQGTLVTVSSGGGGSGGGGSGGGGSGGGGSDIQMTQSPSSLSASVGDRVTITCRASQGISSYLAWYQQKPGKAPKLLIYATSSLQTGVPSRFSGSGSGTDFTLTISSLQPEDFATYYCQQTYSIPITFGQGTRLEIK
11 | binds | MAdCAM antibody Table 1 clone 58 (scFv) scFv: QVQLVQSGAEVKKPGASVKVSCKASGYTFTGYYMHWVRQAPGQGLEWMGIINPSGGNTKYAQKFQGRVTMTRDTSTSTVYMELSSLRSEDTAVYYCTTADYYYYMDVWGKGTTVTVSSGGGGSGGGGSGGGGSGGGGSDIQMTQSPSSLSASVGDRVTITCRASQGISNYLAWYQQKPGKAPKLLIYAASSLQSGVPSRFSGSGSGTDFTLTISSLQPEDFATYYCQQYYSNADFGQGTKVEIK
12 | binds | MAdCAM Antibody Table 2 clone 46 (antibody, V domains shown) VH: EVQLLESGGGLVQPGGSLRLSCAASGFSFSSYTMNWVRQAPGKGLEWVSFITSSSRTIYYADSVKGRFTISRDNSKNTLYLQMNSLRAEDTAVYYCARDRRGDYGDSWYFDLWGRGTLVTVSS VL: EIVMTQSPATLSVSPGERATLSCRASQSVRNYLAWYQQKPGQAPRLLIYGASTRATGIPARFSGSGSGTEFTLTISSLQSEDFAVYYCQQYGSSPLTFGGGTKVEIK
13 | binds | MAdCAM Antibody Table 2 clone 69 (antibody, V domains shown) VH: QVQLVQSGAEVKKPGASVKVSCKASGYTFTSYYMHWVRQAPGQGLEWMGIIDPSGGSTSYAQKFQGRVTMTRDTSTSTVYMELSSLRSEDTAVYYCAREEWSSGGVGYFDYWGQGTLVTVSS VL: DIQMTQSPSSLSASVGDRVTITCRASQGISSYLAWYQQKPGKAPKLLIYATSSLQTGVPSRFSGSGSGTDFTLTISSLQPEDFATYYCQQTYSIPITFGQGTRLEIK
14 | binds | MAdCAM Antibody Table 2 clone 54 (antibody, V domains shown) VH: QVQLVQSGAEVKKPGSSVKVSCKASGGTLSRYGVSWVRQAPGQGLEWMGGIIPIFGTTNYAQKFQGRVTITADESTSTAYMELSSLRSEDTAVYYCARDRVYYDSSGYPTWYFDLWGRGTLVTVSS VL: EIVMTQSPATLSVSPGERATLSCRASQSVSSSYLAWYQQKPGQAPRLLIYGASTRATGIPARFSGSGSGTEFTLTISSLQSEDFAVYYCQQYGSSPITFGQGTKVEIK
15 | binds | MAdCAM Antibody Table 2 clone 66 (antibody, V domains shown) VH: QVQLVQSGAEVKKPGASVKVSCKASGYTFTGHYMHWVRQAPGQGLEWMGIINPSGGSTSYAQKFQGRVTMTRDTSTSTVYMELSSLRSEDTAVYYCARDGAWFGEEYYYGMDVWGQGTTVTVSS VL: DIQMTQSPSSLSASVGDRVTITCRASQGISNWLAWYQQKPGKAPKLLIYDASNLETGVPSRFSGSGSGTDFTLTISSLQPEDFATYYCQQYYSFPLYTFGQGTKVEIK
16 | binds | MAdCAM antibody Table 1 clone 54 (scFv) scFv: EVQLLESGGGLVQPGGSLRLSCAASGFTFGDYAMSWVRQAPGKGLEWVAVVSYDGTNKYYADSVKGRFTISRDNSKNTLYLQMNSLRAEDTAVYYCAKDICSSTSCYFDLWGRGTLVTVSSGGGGSGGGGSGGGGSGGGGSDIQMTQSPSSLSASVGDRVTITCRASQNINNYVNWYQQKPGKAPKLLIYDASNLETGVPSRFSGSGSGTDFTLTISSLQPEDFATYYCQQANSFPPTFGQGTRLEIK
17 | binds | MAdCAM antibody Table 1 clone 3 (scFv) scFv: QVQLVQSGAEVKKPGASVKVSCKASGYPFIGQYLHWVRQAPGQGLEWMGIINPSGGSTSYAQKFQGRVTMTRDTSTSTVYMELSSLRSEDTAVYYCAREGRLSYGMDAWGQGTLVTVSSGGGGSGGGGSGGGGSGGGGSDIQMTQSPSSLSASVGDRVTITCRASQSISSYLAWYQQKPGKAPKLLIYGASTLESGVPSRFSGSGSGTDFTLTISSLQPEDFATYYCQQTWGPPFTFGQGTKLEIK
18 | binds | MAdCAM Antibody Table 2 clone 64 (antibody, V domains shown) VH: EVQLLESGGGLVQPGGSLRLSCAASGFTFSNSDMNWVRQAPGKGLEWVAHIWNDGSQKYYADSVKGRFTISRDNSKNTLYLQMNSLRAEDTAVYYCARDRTDPGYSSAMDVWGQGTTVTVSS VL: DIQMTQSPSSLSASVGDRVTITCRASQDIRNYLGWYQQKPGKAPKLLIYDASSLETGVPSRFSGSGSGTDFTLTISSLQPEDFATYYCQQATSLPLTFGGGTKVEIK
19 | binds | MAdCAM Antibody Table 2 clone 12 (antibody, V domains shown) VH: QVQLVQSGAEVKKPGASVKVSCKASGYTLTTWYMYWVRQAPGQGLEWMGWINPNRGATNYAQKFQGRVTMTRDTSTSTVYMELSSLRSEDTAVYYCAKGDLWGAMDVWGQGTLVTVSS VL: DIQMTQSPSSLSASVGDRVTITCRASDNIGSWLAWYQQKPGKAPKLLIYAASSLQSGVPSRFSGSGSGTDFTLTISSLQPEDFATYYCQQGYSTPPTFGQGTKVEIK
20 | binds | MAdCAM Antibody Table 2 clone 39 (antibody, V domains shown) VH: QVQLVQSGAEVKKPGASVKVSCKASGYTFTSYYMHWVRQAPGQGLEWMAWMNPNSGNTGYAQKFQGRVTMTRDTSTSTVYMELSSLRSEDTAVYYCARDYDFWSGSLGYWGQGTLVTVSS VL: DIQMTQSPSSLSASVGDRVTITCRASQGISNYLAWYQQKPGKAPKLLIYAASSLQSGVPSRFSGSGSGTDFTLTISSLQPEDFATYYCQQSYSTPWTFGQGTKVEIK
21 | binds | MAdCAM antibody Table 1 clone 56 (scFv) scFv: EVQLLESGGGLVQPGGSLRLSCAASGFTFDDYAMHWVRQAPGKGLEWVSAISGGGEDTYYADSVKGRFTISRDNSKNTLYLQMNSLRAEDTAVYYCARDASYGGNYGMDVWGQGTTVTVSSGGGGSGGGGSGGGGSGGGGSDIQMTQSPSSLSASVGDRVTITCQASQDIRNYLNWYQQKPGKAPKLLIYKASSLESGVPSRFSGSGSGTDFTLTISSLQPEDFATYYCQQANSYPVTFGGGTKVEIK

These are yes or no findings as the source states them, for the method shown. Binding calls can cover weak binding; strength is not graded here.
